In US9956301B2, “Complex of garcinol, cyclodextrin and method thereof” (Indus Biotech Private Limited, priority 2010, dated 2018):
At least one structure is not confirmed: it was looked up by name or label, or the drawing left a doubt.

Experiments:
[1] = Accelerated storage stability test as per ICH guidelines; format: physicochemical
[2] = test system: Doxorubicin induced cardiac dysfunction; assay: Activity of Garcinol against Doxorubicin induced cardiac dysfunction; format: in vivo; conditions: rats
Method: Male Wistar rats were pretreated with Garcinol at 10, 25, 50, 100 and 200 mg/kg (p.o.) for 18 days. On day 16, Doxorubicin at a dose of 10 mg/kg (i.v.) was administered intravenously. On day 18, animals were sacrificed. […] Elevated oxidative stress on the heart was also seen from increased lipid peroxidation and decreased glutathione (GSH) concentrations.

For `C=C(C)[C@@H](CC=C(C)C)C[C@@]12C[C@@H](CC=C(C)C)C(C)(C)[C@@](CC=C(C)C)(C(=O)C(C(=O)c3ccc(O)c(O)c3)=C1O)C2=O` [Garcinol], the “Physical Properties, After 3 Months” value ([1]; 40° C., 75% Rh, 3 months) was “Yellow waxy”, the “Assay Purity, After 3 Months” value ([1]; 40° C., 75% Rh, 3 months, HPLC assay of Garcinol) was 73% and the “Physical Properties, Original Sample” value ([1]; before storage) was “Yellow solid”. For the same compound, the “Assay Purity, Original Sample” value ([1]; before storage, HPLC assay of Garcinol) was 95%, the “Oxidative stress induced by Doxorubicin (in words)” value ([2]; Garcinol 100 mg/kg p.o.) was “negated” and the “Cardioprotective activity (in words)” value ([2]; Garcinol 100 mg/kg to 200 mg/kg p.o., Doxorubicin 10 mg/kg i.v.) was “Significant cardioprotective activity”.
